The entries are a selection whose mix differs from that of the whole data set. Calls are pooled over several reports, among them a noisy single-well screen.
Key:
Details in all cases: stereoisomer not certain
UniProt Q8VEU7 = target: T1, UniProt Q8VEU7
T1 sequence (whole entry): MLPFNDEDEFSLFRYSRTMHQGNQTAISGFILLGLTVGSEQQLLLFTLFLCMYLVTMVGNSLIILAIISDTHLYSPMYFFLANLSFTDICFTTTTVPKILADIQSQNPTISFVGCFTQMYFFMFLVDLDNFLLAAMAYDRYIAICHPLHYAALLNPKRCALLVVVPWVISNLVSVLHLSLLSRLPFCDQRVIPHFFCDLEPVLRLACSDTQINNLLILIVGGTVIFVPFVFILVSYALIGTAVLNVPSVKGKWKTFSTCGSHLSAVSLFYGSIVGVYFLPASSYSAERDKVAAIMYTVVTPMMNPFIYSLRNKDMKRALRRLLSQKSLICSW
In short: (§1)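 Values were gathered from published papers (main text and supplementary material), with extra details requested from the original authors when needed, and checked for typos and inconsistencies. Each receptor–molecule pair is called responsive (active) if the original authors judged the measured signal statistically different from baseline, and non-responsive (inactive) otherwise. Assay methods varied by source, often transient mammalian cell-line luciferase assays. Recorded details include cell line, G-protein, co-transfected protein and tags.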

Amino acid sequences for entries named in this document (tags omitted). Chains listed by the source or under a name are the forms on record and can include a tag or linker.
UniProt Q8VG26, as listed by the source: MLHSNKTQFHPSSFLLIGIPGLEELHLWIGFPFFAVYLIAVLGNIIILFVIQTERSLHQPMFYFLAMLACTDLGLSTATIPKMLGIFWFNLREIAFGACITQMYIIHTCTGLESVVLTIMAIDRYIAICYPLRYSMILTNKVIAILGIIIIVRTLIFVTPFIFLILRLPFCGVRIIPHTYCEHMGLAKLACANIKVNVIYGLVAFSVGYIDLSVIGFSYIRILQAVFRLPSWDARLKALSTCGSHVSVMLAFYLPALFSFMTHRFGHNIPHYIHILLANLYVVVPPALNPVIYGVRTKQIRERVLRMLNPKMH
UniProt Q7TS37, as listed by the source: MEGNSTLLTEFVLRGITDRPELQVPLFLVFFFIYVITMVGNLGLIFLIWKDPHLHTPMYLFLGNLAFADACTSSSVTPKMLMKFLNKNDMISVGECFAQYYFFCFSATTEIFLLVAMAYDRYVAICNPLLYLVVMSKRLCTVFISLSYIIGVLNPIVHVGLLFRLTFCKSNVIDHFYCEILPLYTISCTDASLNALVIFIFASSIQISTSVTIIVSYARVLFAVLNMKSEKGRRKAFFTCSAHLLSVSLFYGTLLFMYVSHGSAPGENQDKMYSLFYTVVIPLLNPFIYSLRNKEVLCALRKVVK
UniProt Q7TS40, as listed by the source: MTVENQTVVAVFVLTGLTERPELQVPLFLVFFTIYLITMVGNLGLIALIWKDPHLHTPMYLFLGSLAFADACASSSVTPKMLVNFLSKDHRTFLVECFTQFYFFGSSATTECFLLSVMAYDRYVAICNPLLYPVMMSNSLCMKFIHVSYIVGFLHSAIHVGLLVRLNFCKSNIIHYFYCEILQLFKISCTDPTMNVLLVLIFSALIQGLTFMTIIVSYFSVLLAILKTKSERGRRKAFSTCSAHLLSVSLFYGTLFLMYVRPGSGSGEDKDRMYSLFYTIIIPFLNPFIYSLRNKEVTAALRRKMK
UniProt Q8VF06, as listed by the source: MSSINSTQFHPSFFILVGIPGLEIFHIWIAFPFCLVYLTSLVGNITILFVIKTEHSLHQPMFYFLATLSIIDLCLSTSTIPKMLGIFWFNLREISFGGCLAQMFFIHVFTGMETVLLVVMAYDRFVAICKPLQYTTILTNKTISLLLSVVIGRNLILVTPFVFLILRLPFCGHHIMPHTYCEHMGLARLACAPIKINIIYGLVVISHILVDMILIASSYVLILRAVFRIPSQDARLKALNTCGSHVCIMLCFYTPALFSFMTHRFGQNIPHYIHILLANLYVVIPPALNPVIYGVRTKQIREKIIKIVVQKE
UniProt Q8VF73, as listed by the source: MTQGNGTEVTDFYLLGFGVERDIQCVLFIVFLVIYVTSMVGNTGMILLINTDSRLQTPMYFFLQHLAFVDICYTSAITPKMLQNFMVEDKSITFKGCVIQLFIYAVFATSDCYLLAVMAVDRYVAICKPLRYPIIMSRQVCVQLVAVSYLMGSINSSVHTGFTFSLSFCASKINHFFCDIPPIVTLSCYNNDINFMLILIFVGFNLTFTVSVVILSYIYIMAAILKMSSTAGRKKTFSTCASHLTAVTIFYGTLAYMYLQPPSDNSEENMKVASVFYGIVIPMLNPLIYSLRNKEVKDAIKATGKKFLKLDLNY
UniProt Q8VFB8, as listed by the source: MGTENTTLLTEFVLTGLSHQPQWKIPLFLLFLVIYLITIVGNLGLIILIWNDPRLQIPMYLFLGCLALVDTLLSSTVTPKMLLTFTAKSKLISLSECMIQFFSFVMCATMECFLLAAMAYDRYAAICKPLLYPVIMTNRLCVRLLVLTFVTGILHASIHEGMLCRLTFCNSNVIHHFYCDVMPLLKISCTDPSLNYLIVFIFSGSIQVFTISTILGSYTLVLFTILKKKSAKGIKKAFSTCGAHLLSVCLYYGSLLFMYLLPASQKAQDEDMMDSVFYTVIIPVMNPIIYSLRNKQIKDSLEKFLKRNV
UniProt Q8VFQ6, as listed by the source: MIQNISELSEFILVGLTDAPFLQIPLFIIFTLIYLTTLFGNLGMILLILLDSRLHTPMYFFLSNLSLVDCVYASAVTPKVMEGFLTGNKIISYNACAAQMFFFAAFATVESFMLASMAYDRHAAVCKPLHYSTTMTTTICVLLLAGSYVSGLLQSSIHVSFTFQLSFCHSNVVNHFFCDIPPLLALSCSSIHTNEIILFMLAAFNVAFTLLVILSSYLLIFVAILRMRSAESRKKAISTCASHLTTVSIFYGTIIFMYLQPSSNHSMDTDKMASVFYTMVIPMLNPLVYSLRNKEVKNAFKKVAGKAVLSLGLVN

UniProt Q8VF05 = target: T2, UniProt Q8VF05
T2 sequence (whole entry): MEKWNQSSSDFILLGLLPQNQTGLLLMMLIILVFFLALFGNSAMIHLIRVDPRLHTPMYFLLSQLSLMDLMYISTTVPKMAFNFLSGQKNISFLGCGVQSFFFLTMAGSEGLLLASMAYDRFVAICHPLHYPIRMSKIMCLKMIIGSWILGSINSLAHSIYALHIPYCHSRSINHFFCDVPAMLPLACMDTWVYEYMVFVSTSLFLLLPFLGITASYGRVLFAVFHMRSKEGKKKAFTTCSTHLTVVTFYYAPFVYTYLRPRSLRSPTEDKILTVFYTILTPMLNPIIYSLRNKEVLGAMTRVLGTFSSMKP
In short: as §1

UniProt Q8VF24 = target: T3, UniProt Q8VF24
T3 sequence (whole entry): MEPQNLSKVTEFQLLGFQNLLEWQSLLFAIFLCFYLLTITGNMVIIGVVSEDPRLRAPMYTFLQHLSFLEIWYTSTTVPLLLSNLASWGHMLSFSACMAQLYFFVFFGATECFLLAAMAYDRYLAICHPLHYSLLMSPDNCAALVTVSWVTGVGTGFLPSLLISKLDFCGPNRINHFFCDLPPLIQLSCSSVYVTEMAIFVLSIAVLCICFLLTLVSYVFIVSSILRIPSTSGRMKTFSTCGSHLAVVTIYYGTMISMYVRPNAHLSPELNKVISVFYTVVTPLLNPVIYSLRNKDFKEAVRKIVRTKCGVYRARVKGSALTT
In short: as §1

UniProt Q8VF43 = target: T4, UniProt Q8VF43
T4 sequence (whole entry): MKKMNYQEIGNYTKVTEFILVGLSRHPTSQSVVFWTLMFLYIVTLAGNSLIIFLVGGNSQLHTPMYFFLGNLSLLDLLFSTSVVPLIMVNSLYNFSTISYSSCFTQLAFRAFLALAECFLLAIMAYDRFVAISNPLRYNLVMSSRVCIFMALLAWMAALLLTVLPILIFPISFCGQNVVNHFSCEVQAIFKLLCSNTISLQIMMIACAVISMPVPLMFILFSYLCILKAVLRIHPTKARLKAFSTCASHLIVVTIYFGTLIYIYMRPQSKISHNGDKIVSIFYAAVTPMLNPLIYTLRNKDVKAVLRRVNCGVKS
In short: as §1

UniProt Q8VF44 = target: T5, UniProt Q8VF44
T5 sequence (whole entry): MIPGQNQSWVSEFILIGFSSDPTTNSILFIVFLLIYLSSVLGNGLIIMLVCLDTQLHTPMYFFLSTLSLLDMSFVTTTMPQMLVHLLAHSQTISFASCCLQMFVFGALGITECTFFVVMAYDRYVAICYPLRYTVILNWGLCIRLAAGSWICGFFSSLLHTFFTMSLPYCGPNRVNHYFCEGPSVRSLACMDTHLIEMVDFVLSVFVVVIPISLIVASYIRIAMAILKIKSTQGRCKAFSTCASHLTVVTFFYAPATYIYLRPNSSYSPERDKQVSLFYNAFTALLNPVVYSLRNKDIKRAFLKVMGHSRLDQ
In short: as §1

UniProt Q8VF52 = target: T6, UniProt Q8VF52
T6 sequence (whole entry): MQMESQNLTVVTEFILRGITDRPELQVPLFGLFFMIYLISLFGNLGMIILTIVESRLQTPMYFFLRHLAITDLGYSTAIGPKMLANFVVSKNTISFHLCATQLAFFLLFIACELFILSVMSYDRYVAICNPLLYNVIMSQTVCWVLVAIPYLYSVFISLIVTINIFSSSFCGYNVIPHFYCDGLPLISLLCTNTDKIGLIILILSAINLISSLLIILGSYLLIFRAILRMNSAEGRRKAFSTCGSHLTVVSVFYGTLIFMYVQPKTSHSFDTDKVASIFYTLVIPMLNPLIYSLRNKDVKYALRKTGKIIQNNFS
In short: as §1

UniProt Q8VFG6 = target: T7, UniProt Q8VFG6
T7 sequence (whole entry): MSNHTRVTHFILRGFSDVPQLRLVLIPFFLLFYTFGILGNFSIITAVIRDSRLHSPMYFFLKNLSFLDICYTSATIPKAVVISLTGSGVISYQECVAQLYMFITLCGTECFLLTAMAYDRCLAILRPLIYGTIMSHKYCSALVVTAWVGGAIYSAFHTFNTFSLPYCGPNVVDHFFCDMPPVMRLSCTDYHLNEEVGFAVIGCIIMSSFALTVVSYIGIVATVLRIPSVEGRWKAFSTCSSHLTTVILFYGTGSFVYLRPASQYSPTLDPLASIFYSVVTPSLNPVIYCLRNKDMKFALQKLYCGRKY
In short: as §1

UniProt Q8VFM8 = target: T8, UniProt Q8VFM8
T8 sequence (whole entry): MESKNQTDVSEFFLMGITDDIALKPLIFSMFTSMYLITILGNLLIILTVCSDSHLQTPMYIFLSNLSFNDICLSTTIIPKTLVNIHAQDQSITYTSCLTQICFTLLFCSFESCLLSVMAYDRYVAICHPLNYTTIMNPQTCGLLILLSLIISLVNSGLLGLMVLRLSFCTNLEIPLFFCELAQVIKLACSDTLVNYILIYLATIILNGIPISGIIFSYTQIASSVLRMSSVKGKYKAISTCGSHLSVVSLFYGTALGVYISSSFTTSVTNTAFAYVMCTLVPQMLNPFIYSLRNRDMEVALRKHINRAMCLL
In short: as §1

UniProt Q8VFP5 = target: T9, UniProt Q8VFP5
T9 sequence (whole entry): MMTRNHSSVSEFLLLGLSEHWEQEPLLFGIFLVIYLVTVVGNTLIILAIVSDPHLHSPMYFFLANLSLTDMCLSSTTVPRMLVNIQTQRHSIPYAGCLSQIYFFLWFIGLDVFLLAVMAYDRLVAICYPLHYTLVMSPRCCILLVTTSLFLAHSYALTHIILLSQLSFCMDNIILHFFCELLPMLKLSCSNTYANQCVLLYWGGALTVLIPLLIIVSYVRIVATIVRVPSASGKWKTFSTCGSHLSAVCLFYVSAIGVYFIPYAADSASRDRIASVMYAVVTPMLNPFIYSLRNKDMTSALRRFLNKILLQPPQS
In short: as §1

UniProt Q8VFZ6 = target: T10, UniProt Q8VFZ6
T10 sequence (whole entry): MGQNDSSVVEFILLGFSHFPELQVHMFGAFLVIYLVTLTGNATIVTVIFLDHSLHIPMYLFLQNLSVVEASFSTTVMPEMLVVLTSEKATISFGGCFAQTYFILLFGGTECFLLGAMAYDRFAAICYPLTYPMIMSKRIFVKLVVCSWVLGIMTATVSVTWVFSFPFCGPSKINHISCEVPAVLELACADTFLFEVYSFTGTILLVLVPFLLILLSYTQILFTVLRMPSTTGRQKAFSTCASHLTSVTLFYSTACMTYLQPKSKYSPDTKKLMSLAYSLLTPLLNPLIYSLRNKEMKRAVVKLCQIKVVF
In short: as §1

UniProt Q8VG01 = target: T11, UniProt Q8VG01
T11 sequence (whole entry): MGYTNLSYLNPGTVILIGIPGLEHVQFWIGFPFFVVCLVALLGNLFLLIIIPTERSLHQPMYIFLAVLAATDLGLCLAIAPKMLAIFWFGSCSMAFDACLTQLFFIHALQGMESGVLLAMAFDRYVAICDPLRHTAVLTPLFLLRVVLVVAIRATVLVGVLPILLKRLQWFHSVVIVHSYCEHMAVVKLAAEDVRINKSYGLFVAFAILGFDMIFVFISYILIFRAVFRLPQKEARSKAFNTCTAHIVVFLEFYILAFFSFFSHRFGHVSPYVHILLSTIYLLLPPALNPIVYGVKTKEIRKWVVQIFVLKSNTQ
In short: as §1

UniProt Q8VG22 = target: T12, UniProt Q8VG22
T12 sequence (whole entry): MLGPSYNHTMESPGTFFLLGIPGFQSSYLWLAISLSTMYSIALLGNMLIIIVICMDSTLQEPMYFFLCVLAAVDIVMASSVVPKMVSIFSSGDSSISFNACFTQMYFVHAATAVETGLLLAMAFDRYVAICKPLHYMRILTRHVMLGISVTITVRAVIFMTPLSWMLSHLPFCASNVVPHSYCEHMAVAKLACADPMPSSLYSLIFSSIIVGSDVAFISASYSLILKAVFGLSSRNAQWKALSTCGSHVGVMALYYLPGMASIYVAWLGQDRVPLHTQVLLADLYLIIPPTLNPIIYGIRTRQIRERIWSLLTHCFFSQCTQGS
In short: as §1

UniProt Q8VG26 = target: UniProt Q8VG26
In short: as §1

UniProt Q8VG27 = target: T13, UniProt Q8VG27
T13 sequence (whole entry): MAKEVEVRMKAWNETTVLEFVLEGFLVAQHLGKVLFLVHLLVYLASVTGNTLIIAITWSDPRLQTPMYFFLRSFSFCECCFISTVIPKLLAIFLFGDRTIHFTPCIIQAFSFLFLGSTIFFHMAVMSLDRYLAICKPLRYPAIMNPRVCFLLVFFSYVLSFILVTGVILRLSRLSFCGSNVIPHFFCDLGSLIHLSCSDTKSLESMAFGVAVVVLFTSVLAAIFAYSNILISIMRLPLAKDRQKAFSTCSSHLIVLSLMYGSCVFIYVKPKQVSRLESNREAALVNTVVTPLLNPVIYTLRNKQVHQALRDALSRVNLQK
In short: as §1

UniProt Q7TS37 = target: UniProt Q7TS37
In short: as §1

UniProt Q7TS40 = target: UniProt Q7TS40
In short: as §1

UniProt Q8VF06 = target: UniProt Q8VF06
In short: as §1

UniProt Q8VF73 = target: UniProt Q8VF73
In short: as §1

UniProt Q8VFB8 = target: UniProt Q8VFB8
In short: as §1

UniProt Q8VFQ6 = target: UniProt Q8VFQ6
In short: as §1

Measured: odorant receptor agonist call

CCCCCCCCC=O
not listed: UniProt Q7TS37 | UniProt Q7TS40 | UniProt Q8VF06 | UniProt Q8VF73 | UniProt Q8VFB8 | UniProt Q8VFQ6
inactive: all other assays above

COC(=O)c1ccccc1O
inactive: UniProt Q8VF43 | UniProt Q8VF52 | UniProt Q8VFM8 | UniProt Q8VFP5 | UniProt Q8VG01 | UniProt Q8VG27

CCCCCCCC=O
not listed: UniProt Q8VG26 | UniProt Q7TS37 | UniProt Q7TS40 | UniProt Q8VF06 | UniProt Q8VF73 | UniProt Q8VFB8 | UniProt Q8VFQ6
inactive: all other assays above

CCCCO
inactive: UniProt Q8VF43 | UniProt Q8VF52 | UniProt Q8VFM8 | UniProt Q8VFP5 | UniProt Q8VG01 | UniProt Q8VG27

CC(=O)OC1CC2CCC1(C)C2(C)C (configuration not stated)
inactive: UniProt Q8VF43 | UniProt Q8VF52 | UniProt Q8VFM8 | UniProt Q8VFP5 | UniProt Q8VG01 | UniProt Q8VG27

CC1COCc2cc3c(cc21)C(C)(C)C(C)C3(C)C (configuration not stated)
inactive: UniProt Q8VF43 | UniProt Q8VF52 | UniProt Q8VFM8 | UniProt Q8VFP5 | UniProt Q8VG01 | UniProt Q8VG27

O=C1CCCCC1
inactive: UniProt Q8VEU7 | UniProt Q8VF24 | UniProt Q8VF44 | UniProt Q8VF52 | UniProt Q8VFG6 | UniProt Q8VFZ6 | UniProt Q8VG01
active: UniProt Q8VF05 | UniProt Q8VG22

C=C(C)C1CC=C(C)C(=O)C1 (configuration not stated)
active: UniProt Q7TS37 | UniProt Q7TS40 | UniProt Q8VF05 | UniProt Q8VF52 | UniProt Q8VFQ6 | UniProt Q8VG22
inactive: all other assays above

CC(C)CC(=O)O
inactive: UniProt Q8VF06 | UniProt Q8VF43 | UniProt Q8VF52 | UniProt Q8VFM8 | UniProt Q8VFP5 | UniProt Q8VG01 | UniProt Q8VG26 | UniProt Q8VG27

O=C1CCCCCCCCCCCCCCO1
inactive: UniProt Q8VF43 | UniProt Q8VF52 | UniProt Q8VFM8 | UniProt Q8VFP5 | UniProt Q8VG01 | UniProt Q8VG27

CC(=O)C(C)=O
inactive: UniProt Q8VF43 | UniProt Q8VF52 | UniProt Q8VFM8 | UniProt Q8VFP5 | UniProt Q8VG01 | UniProt Q8VG27

CC(C)=CCCC(C)=CC=O
inactive: UniProt Q8VF43 | UniProt Q8VF52 | UniProt Q8VFM8 | UniProt Q8VFP5 | UniProt Q8VG01 | UniProt Q8VG27

CC(=O)c1ccccc1
active: UniProt Q7TS37 | UniProt Q8VF05 | UniProt Q8VF52 | UniProt Q8VG22
inactive: all other assays above

C=CC(C)(O)CCC=C(C)C (configuration not stated)
inactive: UniProt Q8VF43 | UniProt Q8VF52 | UniProt Q8VFM8 | UniProt Q8VFP5 | UniProt Q8VG01 | UniProt Q8VG27
